Experimental data as given in PMC6411103, “TAK-071, a muscarinic M1 receptor positive allosteric modulator, attenuates scopolamine-induced quantitative electroencephalogram power spectral changes in cynomolgus monkeys” (PLoS ONE, 2019).
Where a name gives a salt, the structure may show the parent alone.

Tested on: cynomolgus monkeys
Assay: qEEG power spectra after treatment with drug alone (radio-telemetry EEG)
Assay type: in vivo, cynomolgus monkeys (Macaca fascicularis)
Description: Implant surgery was carried out at Hamri Company Limited (Ibaraki, Japan). Briefly, under isoflurane anesthesia (1–5%, Pfizer Japan Inc., Tokyo, Japan), male cynomolgus monkeys (3–5 years old, Hamri Co., Ltd., Ibaraki, Japan) were surgically implanted with radio-telemetry transmitters (TL10M3-D70-EEE, Data Sciences International Inc., St. Paul, MN). EEG leads were stereotaxically positioned in the parietal area and secured to the cranium with stainless-steel screws in contact with the dura. […] Bilateral electromyography (EMG) leads were implanted in the back cervical muscles. After surgery, each monkey was administered penicillin (100,000 units/animal, i.m., Meiji Seika Pharma Co., Ltd., Tokyo, Japan), buprenorphine (0.02 mg/kg, i.m., Otsuka Pharmaceutical Co., Ltd., Tokyo, Japan), and prednisolone (1 mg/kg, subcutaneously [s.c.], Kyoritsu Seiyaku Co., Ltd., Tokyo, Japan) daily for one week.
TAK-071, 4-fluoro-2-[(3S,4S)-4-hydroxytetrahydro-2H-pyran-3-yl]-5-methyl-6-[4-(1H-pyrazol-1-yl)benzyl]-2,3-dihydro-1H-isoindol-1-one, was synthesized by Takeda Pharmaceutical Company Limited (Kanagawa, Japan). Donepezil hydrochloride and xanomeline oxalate were purchased from Mega Fine Pharma (P) Limited (Mumbai, India) and Metina AB (Lund, Sweden), respectively. […] TAK-071 and donepezil hydrochloride were suspended in 0.5% (w/v) methylcellulose in distilled water and the volume of administration was 2 mL/kg orally (p.o.). […] The doses of compounds correspond to their salt forms. The administration was scheduled according to a 3×3 cross-over design.
After at least a 1-month recovery period in their home cages, the monkeys were habituated to the recording chamber (acrylic cage, 60 × 55 × 75 [cm^3 width × depth × height]) located in a soundproof, electrically shielded room. Cortical EEG, EMG, and EOG signals were recorded at a sampling rate of 500 Hz using Dataquest ART software (Data Sciences International, New Brighton, MN). The behavioral and postural changes of the animals were observed using a video camera continuously throughout the experiment. The recordings were performed between 9 a.m. and 4 p.m..
EEG data were analyzed off-line using SleepSign (KISSEI COMTEC Co., Ltd., Nagano, Japan). Digitized EEG signals were high-pass filtered with a 0.75-Hz filter. Spectral power densities for each frequency band were calculated by fast Fourier transform in consecutive 10-s epochs. Epochs containing abnormal EEG, defined by excessive amplitude (> 500 μV), were omitted from data analysis. For analysis of temporal changes in a specific spectral band (1–4 Hz for delta, 4–8 Hz for theta, 8–12 Hz for alpha, 12–30 Hz for beta, 30–80 Hz for gamma), the EEG power of each spectral band was calculated every 15 min. For each animal, the qEEG spectral analyses were performed from 30 to 240 min after treatment because oral and subcutaneous administration of drugs to monkeys can affect the qEEG power spectra. Data obtained in the post-drug period were normalized with those obtained in the baseline period and were calculated as the area under the curve (AUC) between 30 and 210 min after drug administration for quantitative analyses.

[1] = scopolamine alone, 50 and 100 μg/kg s.c., vs vehicle, P ≤ 0.05, 4 monkeys

`CN1[C@@H]2C[C@@H](OC(=O)[C@H](CO)c3ccccc3)C[C@H]1[C@@H]1O[C@@H]12` [scopolamine, Scopolamine hydrobromide] was tested, and the “beta power band of qEEG spectra” value (scopolamine 25–100 μg/kg s.c.) was “did not change remarkably”, the “gamma power band of qEEG spectra” value (scopolamine 25–100 μg/kg s.c.) was “did not change remarkably” and the “alpha power band of qEEG spectra (AUC 30-210 min)” value [1] was “significantly increased”. The “delta power band of qEEG spectra (AUC 30-210 min)” value [1] was “significantly increased” and the “theta power band of qEEG spectra (AUC 30-210 min)” value [1] was “significantly increased”.
